For series [1] the following is noted: effective therapeutic plasma concentration; cited from earlier work.
In series [2] the test system is lined-up hESC-CMs. Kind of series: MEA field potential recording of lined-up hESC-CMs (cFPD, CT, their STVs, ISI, beat rate, arrest). The following applies: Conc. 10^3 nM; arrest cases/chips. As for the experimental part:
Human embryonic stem cell-derived cardiomyocytes clusters (hES-CMCs) were shipped from Cellectis (hES-CMCTM002, hES cell line SA002, Gothenburg, Sweden)[42],[43], and maintained in Dulbecco’s modified Eagle’s medium (DMEM) supplemented 20% heat-inactivated fetal bovaine serum, 1 mM GlutaMax, 100 U/mL penicillin, 0.1 mg/mL streptomycin, 1% nonessential amino acids and 0.1 mM β-mercaptoethanol (Invitrogen, Carsbad, CA, USA). Dispersed cardiomyocytes were isolated from hES-CMCs by a modification of the methods of Norström et al.[44]–[48]. […] The supernatant was gently aspirated with pipette, and a 5-hold volume of DMEM was added as stop solution. Remaining clusters were treats ed with the above process with several times. The supernatants were collected and centrifuged with 200 × g for 2–3 min at 4 °C. […]
Extracellular potential recordings of the lined-up hESC-CMs were performed using the MEA system at a sampling rate of 10 kHz with a low path filter of 2 kHz and high path filter of 1 Hz, and signals were amplified by 100–50,000 using the amplifier. […] The signals were analyzed by Igor Pro 6.0 (WaveMetrics, Inc., USA) and FlexPro 7.0 (Weisang GmbH, Germany).
We adopted the same drug administration protocol as we examined previously[40] […] The MEA chip was placed in the holder of the FP measurement device, and equilibrated for 5 min, and then the control FP waveforms were recorded for 10 min. […]

SMILES strings stand for the structures.

For the compound `Cc1cccc(CCN2CCC(C(=O)c3ccc(NS(C)(=O)=O)cc3)CC2)n1` [E-4031], in series [1], the EPTC is 3.5 nM. Besides, the Arrest in series [2] is given as 1/13.

The values above are taken from article PMC6162288, “On-chip spatiotemporal electrophysiological analysis of human stem cell derived cardiomyocytes enables quantitative assessment of proarrhythmia in drug development” (Scientific Reports, 2018).
